According to doi:10.1101/2025.10.27.684818:

T1: LEA10-GFP (pLEA10:LEA10-GFP translational reporter) (Arabidopsis thaliana (Col-0)) (UniProt P42763)
T1 sequence: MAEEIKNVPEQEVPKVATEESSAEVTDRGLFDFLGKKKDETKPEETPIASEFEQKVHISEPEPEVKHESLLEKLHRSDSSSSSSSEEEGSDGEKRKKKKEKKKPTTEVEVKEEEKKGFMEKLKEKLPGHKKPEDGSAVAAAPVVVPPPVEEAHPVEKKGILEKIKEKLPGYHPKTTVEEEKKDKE

T2: LEA4-GFP (pLEA4:LEA4-GFP translational reporter) (Arabidopsis thaliana (Col-0)) (UniProt P31168)
T2 sequence: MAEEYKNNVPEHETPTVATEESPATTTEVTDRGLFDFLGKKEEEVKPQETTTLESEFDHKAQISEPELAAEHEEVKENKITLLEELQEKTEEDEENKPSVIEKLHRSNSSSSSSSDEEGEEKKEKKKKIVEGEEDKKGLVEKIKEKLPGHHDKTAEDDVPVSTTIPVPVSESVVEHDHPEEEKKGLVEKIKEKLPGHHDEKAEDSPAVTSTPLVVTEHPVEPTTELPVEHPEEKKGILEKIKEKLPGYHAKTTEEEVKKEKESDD

T3: LEA5-GFP (pLEA5:LEA5-GFP translational reporter) (Arabidopsis thaliana (Col-0)) (UniProt P42759)
T3 sequence: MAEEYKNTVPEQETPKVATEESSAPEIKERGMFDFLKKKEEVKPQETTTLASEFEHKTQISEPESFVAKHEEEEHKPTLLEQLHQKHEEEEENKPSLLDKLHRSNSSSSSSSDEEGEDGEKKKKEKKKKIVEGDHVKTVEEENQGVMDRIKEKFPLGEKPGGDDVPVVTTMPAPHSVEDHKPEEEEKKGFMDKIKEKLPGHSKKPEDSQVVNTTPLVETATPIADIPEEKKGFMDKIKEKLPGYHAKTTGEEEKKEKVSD

B1: REMORIN family protein REM1.3, endogenous (protein, UniProt O80837 1-190)
chain: MAEEQKTSKVDVESPAVLAPAKEPTPAPVEVADEKIHNPPPVESKALAVVEKPIEEHTPKKASSGSADRDVILADLEKEKKTSFIKAWEESEKSKAENRAQKKISDVHAWENSKKAAVEAQLRKIEEKLEKKKAQYGEKMKNKVAAIHKLAEEKRAMVEAKKGEELLKAEEMGAKYRATGVVPKATCGCF
B2: LEA4 (COR47), endogenous (protein, UniProt P31168 1-265)
chain: T2 sequence
B3: PLASMA MEMBRANE … PROTEIN PIP2A, endogenous (protein, UniProt P43286 1-287)
chain: MAKDVEAVPGEGFQTRDYQDPPPAPFIDGAELKKWSFYRAVIAEFVATLLFLYITVLTVIGYKIQSDTDAGGVDCGGVGILGIAWAFGGMIFILVYCTAGISGGHINPAVTFGLFLARKVSLPRALLYIIAQCLGAICGVGFVKAFQSSYYTRYGGGANSLADGYSTGTGLAAEIIGTFVLVYTVFSATDPKRSARDSHVPVLAPLPIGFAVFMVHLATIPITGTGINPARSFGAAVIYNKSKPWDDHWIFWVGPFIGAAIAAFYHQFVLRASGSKSLGSFRSAANV
B4: PLASMA MEMBRANE ASSOCIATED CATION-BINDING PROTEIN 1, endogenous (protein, UniProt Q96262 1-225)
chain: MGYWNSKVVPKFKKLFEKNSAKKAAAAEATKTFDESKETINKEIEEKKTELQPKVVETYEATSAEVKALVRDPKVAGLKKNSAAVQKYLEELVKIEFPGSKAVSEASSSFGAGYVAGPVTFIFEKVSVFLPEEVKTKEIPVEEVKAEEPAKTEEPAKTEGTSGEKEEIVEETKKGETPETAVVEEKKPEVEEKKEEATPAPAVVETPVKEPETTTTAPVAEPPKP
B5: LEA10 (ERD14), endogenous (protein, UniProt P42763 1-185)
chain: T1 sequence
B6: LEA5 (ERD10), endogenous (protein, UniProt P42759 1-260)
chain: T3 sequence
B7: PHOSPHOLIPASE D ALPHA 1 (PLDα1), endogenous (enzyme, UniProt Q38882 1-810)
chain: MAQHLLHGTLHATIYEVDALHGGGVRQGFLGKILANVEETIGVGKGETQLYATIDLQKARVGRTRKIKNEPKNPKWYESFHIYCAHLASDIIFTVKDDNPIGATLIGRAYIPVDQVINGEEVDQWVEILDNDRNPIQGGSKIHVKLQYFHVEEDRNWNMGIKSAKFPGVPYTFFSQRQGCKVSLYQDAHIPDNFVPRIPLAGGKNYEPQRCWEDIFDAISNAKHLIYITGWSVYAEIALVRDSRRPKPGGDVTIGELLKKKASEGVRVLLLVWDDRTSVDVLKKDGLMATHDEETENFFRGSDVHCILCPRNPDDGGSIVQSLQISTMFTHHQKIVVVDSEMPSRGGSEMRRIVSFVGGIDLCDGRYDTPFHSLFRTLDTVHHDDFHQPNFTGAAITKGGPREPWHDIHSRLEGPIAWDVMYNFEQRWSKQGGKDILVKLRDLSDIIITPSPVMFQEDHDVWNVQLFRSIDGGAAAGFPESPEAAAEAGLVSGKDNIIDRSIQDAYIHAIRRAKDFIYVENQYFLGSSFAWAADGITPEDINALHLIPKELSLKIVSKIEKGEKFRVYVVVPMWPEGLPESGSVQAILDWQRRTMEMMYKDVIQALRAQGLEEDPRNYLTFFCLGNREVKKDGEYEPAEKPDPDTDYMRAQEARRFMIYVHTKMMIVDDEYIIIGSANINQRSMDGARDSEIAMGGYQPHHLSHRQPARGQIHGFRMSLWYEHLGMLDETFLDPSSLECIEKVNRISDKYWDFYSSESLEHDLPGHLLRYPIGVASEGDITELPGFEFFPDTKARILGTKSDYLPPILTT
B8: copper chaperone AT3G56240, endogenous (protein, UniProt O82089 1-121)
chain: MAQTVVLKVGMSCQGCVGAVNRVLGKMEGVESFDIDIKEQKVTVKGNVEPEAVFQTVSKTGKKTSYWPVEAEAEPKAEADPKVETVTETKTEAETKTEAKVDAKADVEPKAAEAETKPSQV
B9: REDUCED HYPEROSMOLALITY-INDUCED [Ca2+] INCREASE 3 (OSCA3), endogenous (protein, UniProt Q9C8G5 1-724)
chain: MEFGSFLVSLGTSFVIFVILMLLFTWLSRKSGNAPIYYPNRILKGLEPWEGTSLTRNPFAWMREALTSSEQDVVNLSGVDTAVHFVFLSTVLGIFACSSLLLLPTLLPLAATDNNIKNTKNATDTTSKGTFSQLDNLSMANITKKSSRLWAFLGAVYWISLVTYFFLWKAYKHVSSLRAQALMSADVKPEQFAILVRDMPAPPDGQTQKEFIDSYFREIYPETFYRSLVATENSKVNKIWEKLEGYKKKLARAEAILAATNNRPTNKTGFCGLVGKQVDSIEYYTELINESVAKLETEQKAVLAEKQQTAAVVFFTTRVAAASAAQSLHCQMVDKWTVTEAPEPRQLLWQNLNIKLFSRIIRQYFIYFFVAVTILFYMIPIAFVSAITTLKNLQRIIPFIKPVVEITAIRTVLESFLPQIALIVFLAMLPKLLLFLSKAEGIPSQSHAIRAASGKYFYFSVFNVFIGVTLAGTLFNTVKDIAKNPKLDMIINLLATSLPKSATFFLTYVALKFFIGYGLELSRIIPLIIFHLKKKYLCKTEAEVKEAWYPGDLSYATRVPGDMLILTITFCYSVIAPLILIFGITYFGLGWLVLRNQALKVYVPSYESYGRMWPHIHQRILAALFLFQVVMFGYLGAKTFFYTALVIPLIITSLIFGYVCRQKFYGGFEHTALEVACRELKQSPDLEEIFRAYIPHSLSSHKPEEHEFKGAMSRYQDFNAIAGV

Each molecule was assayed against T1, LEA10-GFP (pLEA10:LEA10-GFP translational reporter) (Arabidopsis thaliana (Col-0)) (assay: affinity purification with mass spectrometry).

| binding | Molecule |
| --- | --- |
| binds | B1 |
| binds | B2 |
| binds | B3 |
| binds | B4 |

The molecules below were run against T2, LEA4-GFP (pLEA4:LEA4-GFP translational reporter) (Arabidopsis thaliana (Col-0)) (assay: affinity purification with mass spectrometry).

| binding | Molecule |
| --- | --- |
| binds | B5 |
| binds | B1 |
| binds | B3 |
| binds | B4 |
| binds | B6 |

What follows are molecules tested against T3, LEA5-GFP (pLEA5:LEA5-GFP translational reporter) (Arabidopsis thaliana (Col-0)) (assay: affinity purification with mass spectrometry).

| binding | Molecule |
| --- | --- |
| binds | B5 |
| binds | B7 |
| binds | B8 |
| binds | B1 |
| binds | B2 |
| binds | B3 |
| binds | B4 |
| binds | B9 |

Target: T3, LEA5-GFP (pLEA5:LEA5-GFP translational reporter) (Arabidopsis thaliana (Col-0))
Test: affinity purification with mass spectrometry
Remark: another data set of the same source

| binding | Molecule |
| --- | --- |
| binds | REMORIN1.2, endogenous |
| binds | HSP70-interacting protein 1, endogenous |

Results are given in words; binding and its absence hold for the method and conditions named. In cells and extracts the contact can be indirect. These calls come from enrichment with a bait or labelling near it, and not all partners need be listed. Sequences can lack the tags named with a protein.
